# Results are given in words; binding and its absence hold for the method and conditions named. Some entries that bind do so weakly or less than the wild type. Tags and fused reporters may be left off the sequences shown.
# B1: yeast Naa10/Ard1 residues 1-226 (domain or fragment, UniProt P07347 1-226)
# chain: MPINIRRATINDIICMQNANLHNLPENYMMKYYMYHILSWPEASFVATTTTLDCEDSDEQDENDKLELTLDGTNDGRTIKLDPTYLAPGEKLVGYVLVKMNDDPDQQNEPPNGHITSLSVMRTYRRMGIAENLMRQALFALREVHQAEYVSLHVRQSNRAALHLYRDTLAFEVLSIEKSYYQDGEDAYAMKKVLKLEELQISNFTHRRLKENEEKLEDDLESDLLE
# Molecular target: T1, full-length yeast Naa15/Nat1 with an N-terminal 6xHis tag (yeast) (UniProt P12945)
# T1 sequence: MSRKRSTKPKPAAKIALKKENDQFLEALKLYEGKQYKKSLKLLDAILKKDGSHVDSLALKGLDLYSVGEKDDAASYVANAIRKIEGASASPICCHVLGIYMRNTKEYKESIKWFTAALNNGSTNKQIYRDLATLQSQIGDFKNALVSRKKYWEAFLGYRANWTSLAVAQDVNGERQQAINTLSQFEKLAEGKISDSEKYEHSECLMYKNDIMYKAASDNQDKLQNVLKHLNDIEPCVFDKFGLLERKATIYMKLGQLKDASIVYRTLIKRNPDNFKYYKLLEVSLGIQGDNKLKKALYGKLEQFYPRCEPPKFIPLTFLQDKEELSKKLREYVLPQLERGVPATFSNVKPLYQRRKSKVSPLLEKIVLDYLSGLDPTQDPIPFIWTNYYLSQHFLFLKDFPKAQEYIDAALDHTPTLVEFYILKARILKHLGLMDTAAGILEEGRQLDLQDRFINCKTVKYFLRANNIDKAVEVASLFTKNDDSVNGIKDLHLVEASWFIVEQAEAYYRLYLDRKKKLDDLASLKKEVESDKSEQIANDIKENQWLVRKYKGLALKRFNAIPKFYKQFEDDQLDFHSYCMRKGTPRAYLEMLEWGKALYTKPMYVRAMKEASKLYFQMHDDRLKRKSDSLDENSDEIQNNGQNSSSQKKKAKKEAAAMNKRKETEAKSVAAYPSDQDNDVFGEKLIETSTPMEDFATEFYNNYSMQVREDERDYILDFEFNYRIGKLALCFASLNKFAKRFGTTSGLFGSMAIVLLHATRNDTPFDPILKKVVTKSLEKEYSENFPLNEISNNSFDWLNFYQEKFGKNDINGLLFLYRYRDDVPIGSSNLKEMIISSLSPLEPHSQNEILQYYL
# Assay: co-purification
binder,measurement,value
B1,binding,binds

# From doi:10.1101/2025.07.15.664932
